Test results reported in ChEMBL document CHEMBL1139598, “A discriminant model constructed by the support vector machine method for HERG potassium channel inhibitors” (Bioorg Med Chem Lett, 2005).

Chains of the proteins cited; added tags and fusions are not shown. Lines headed by an entry give the natural chain unless they say otherwise; changes in a name come on top.
UniProt Q12809: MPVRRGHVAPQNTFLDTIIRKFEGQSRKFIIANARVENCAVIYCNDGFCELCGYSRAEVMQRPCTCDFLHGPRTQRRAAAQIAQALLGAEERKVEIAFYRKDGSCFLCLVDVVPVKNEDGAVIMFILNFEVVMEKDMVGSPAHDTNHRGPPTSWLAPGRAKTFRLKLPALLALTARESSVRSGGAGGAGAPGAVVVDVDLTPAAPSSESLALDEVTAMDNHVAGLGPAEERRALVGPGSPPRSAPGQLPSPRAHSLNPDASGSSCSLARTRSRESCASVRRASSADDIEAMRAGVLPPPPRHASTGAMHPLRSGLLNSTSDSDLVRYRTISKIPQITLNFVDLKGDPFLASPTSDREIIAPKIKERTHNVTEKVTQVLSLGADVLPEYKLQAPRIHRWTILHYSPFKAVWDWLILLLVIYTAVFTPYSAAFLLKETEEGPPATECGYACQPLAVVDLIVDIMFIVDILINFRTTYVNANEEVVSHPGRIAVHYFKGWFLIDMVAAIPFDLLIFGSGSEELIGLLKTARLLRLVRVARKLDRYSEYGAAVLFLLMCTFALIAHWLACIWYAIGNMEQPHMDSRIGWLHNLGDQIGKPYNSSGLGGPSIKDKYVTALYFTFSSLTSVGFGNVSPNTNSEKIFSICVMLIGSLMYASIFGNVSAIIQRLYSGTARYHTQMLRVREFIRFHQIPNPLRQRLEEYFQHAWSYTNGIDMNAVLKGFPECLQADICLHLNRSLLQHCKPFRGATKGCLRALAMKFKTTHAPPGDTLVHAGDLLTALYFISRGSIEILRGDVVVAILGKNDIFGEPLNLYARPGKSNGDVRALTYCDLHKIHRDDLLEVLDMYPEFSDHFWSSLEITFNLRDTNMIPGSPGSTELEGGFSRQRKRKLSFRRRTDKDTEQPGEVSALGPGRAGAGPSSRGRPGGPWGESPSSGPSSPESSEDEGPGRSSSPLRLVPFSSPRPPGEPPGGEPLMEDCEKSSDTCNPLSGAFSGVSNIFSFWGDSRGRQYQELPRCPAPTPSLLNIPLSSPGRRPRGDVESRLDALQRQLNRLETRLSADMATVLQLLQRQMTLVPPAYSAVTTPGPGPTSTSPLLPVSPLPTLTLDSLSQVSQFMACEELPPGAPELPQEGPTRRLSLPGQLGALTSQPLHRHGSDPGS

Molecular target: Voltage-gated inwardly rectifying potassium channel KCNH2 (Homo sapiens, UniProt Q12809)
Assay: Inhibitory concentration against potassium channel HERG

| Compound | IC50 |
| --- | --- |
| CO[C@]12CC[C@@]3(C[C@@H]1[C@](C)(O)C(C)(C)C)[C@H]1Cc4ccc(O)c5c4[C@@]3(CCN1CC1CC1)[C@H]2O5 [BUPRENORPHINE] | 7.59 µM |
| CCOC(=O)C1(c2ccccc2)CCN(C)CC1 [MEPERIDINE] | 0.324 µM |
